Consider 38 targets from the supplement of paper PMC7666118.

The chains behind the UniProt entries cited, without tags or fusion partners. Where a name states a change or a piece, a line headed by the entry shows the natural chain unless it says otherwise.
UniProt Q8TEA8: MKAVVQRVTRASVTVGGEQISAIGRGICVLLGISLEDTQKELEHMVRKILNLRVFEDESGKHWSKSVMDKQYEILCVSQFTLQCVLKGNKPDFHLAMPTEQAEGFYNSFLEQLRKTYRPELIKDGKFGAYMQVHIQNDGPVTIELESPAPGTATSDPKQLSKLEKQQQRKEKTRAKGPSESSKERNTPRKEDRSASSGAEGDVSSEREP
UniProt Q9H8V3: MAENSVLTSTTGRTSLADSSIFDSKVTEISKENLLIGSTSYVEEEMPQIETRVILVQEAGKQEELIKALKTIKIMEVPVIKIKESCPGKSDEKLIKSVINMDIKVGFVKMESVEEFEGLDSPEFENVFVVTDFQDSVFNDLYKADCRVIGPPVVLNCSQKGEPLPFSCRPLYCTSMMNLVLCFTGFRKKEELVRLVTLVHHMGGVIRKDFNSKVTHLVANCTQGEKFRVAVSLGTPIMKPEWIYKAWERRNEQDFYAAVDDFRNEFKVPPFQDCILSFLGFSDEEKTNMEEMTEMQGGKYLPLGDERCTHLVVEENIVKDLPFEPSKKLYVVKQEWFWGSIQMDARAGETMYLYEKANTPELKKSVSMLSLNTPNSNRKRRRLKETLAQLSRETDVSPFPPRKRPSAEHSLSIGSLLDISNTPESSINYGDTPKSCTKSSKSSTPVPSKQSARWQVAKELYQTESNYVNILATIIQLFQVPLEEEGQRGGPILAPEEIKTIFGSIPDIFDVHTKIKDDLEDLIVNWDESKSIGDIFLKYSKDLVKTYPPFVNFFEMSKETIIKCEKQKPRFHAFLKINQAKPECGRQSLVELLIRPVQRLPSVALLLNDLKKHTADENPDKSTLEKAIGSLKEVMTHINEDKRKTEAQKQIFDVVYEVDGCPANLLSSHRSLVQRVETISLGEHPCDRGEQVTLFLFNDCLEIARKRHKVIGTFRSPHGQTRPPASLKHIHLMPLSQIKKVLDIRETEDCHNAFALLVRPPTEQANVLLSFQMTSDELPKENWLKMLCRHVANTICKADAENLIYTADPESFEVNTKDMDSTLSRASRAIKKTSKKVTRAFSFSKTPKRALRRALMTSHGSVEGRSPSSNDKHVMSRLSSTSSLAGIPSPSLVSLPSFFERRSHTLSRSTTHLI
UniProt O00429, whole entry: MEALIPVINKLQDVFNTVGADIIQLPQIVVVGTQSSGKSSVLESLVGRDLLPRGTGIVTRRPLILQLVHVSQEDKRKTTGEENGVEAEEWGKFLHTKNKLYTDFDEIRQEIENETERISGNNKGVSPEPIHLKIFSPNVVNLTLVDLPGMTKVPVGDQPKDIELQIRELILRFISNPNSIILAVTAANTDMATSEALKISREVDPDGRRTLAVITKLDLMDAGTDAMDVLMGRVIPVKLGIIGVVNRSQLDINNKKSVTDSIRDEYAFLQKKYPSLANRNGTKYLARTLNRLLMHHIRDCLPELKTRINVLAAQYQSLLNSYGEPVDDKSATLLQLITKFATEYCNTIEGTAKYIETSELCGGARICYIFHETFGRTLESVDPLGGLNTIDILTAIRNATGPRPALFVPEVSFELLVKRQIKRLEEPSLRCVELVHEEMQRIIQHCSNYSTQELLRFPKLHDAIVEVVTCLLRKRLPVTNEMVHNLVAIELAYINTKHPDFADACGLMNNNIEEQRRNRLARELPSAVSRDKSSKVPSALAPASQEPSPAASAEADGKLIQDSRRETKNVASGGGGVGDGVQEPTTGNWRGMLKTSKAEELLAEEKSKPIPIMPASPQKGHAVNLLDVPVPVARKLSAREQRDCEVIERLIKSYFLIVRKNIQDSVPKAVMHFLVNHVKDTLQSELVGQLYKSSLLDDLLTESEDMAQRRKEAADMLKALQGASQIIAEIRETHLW
UniProt Q14240, whole entry: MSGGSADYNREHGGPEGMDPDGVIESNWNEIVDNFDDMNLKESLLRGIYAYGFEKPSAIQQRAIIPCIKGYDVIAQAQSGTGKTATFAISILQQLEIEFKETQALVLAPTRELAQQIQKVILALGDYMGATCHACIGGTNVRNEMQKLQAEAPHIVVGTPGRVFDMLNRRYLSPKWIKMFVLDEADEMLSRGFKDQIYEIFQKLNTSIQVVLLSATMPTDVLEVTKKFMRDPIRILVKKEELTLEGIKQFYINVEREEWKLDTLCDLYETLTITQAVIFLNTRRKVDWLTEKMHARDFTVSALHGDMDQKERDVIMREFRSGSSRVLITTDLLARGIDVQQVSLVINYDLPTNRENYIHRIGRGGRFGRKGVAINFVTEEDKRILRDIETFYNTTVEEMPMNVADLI
UniProt Q8WXX5: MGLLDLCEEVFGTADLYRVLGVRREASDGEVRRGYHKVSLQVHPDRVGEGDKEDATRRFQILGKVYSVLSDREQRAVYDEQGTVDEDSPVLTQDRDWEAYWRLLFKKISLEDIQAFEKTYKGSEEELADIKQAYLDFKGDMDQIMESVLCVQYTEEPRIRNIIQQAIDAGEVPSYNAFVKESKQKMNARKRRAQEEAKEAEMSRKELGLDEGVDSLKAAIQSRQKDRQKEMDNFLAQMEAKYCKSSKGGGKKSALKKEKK
UniProt O43414: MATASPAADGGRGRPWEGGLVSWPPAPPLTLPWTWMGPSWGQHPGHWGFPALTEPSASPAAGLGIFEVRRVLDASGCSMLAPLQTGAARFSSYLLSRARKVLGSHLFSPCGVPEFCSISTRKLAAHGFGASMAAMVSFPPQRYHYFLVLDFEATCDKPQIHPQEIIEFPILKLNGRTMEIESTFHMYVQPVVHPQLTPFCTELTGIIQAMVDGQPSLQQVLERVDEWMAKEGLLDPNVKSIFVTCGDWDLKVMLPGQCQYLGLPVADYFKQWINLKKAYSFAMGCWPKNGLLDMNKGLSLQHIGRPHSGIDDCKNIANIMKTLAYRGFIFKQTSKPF
UniProt O00115: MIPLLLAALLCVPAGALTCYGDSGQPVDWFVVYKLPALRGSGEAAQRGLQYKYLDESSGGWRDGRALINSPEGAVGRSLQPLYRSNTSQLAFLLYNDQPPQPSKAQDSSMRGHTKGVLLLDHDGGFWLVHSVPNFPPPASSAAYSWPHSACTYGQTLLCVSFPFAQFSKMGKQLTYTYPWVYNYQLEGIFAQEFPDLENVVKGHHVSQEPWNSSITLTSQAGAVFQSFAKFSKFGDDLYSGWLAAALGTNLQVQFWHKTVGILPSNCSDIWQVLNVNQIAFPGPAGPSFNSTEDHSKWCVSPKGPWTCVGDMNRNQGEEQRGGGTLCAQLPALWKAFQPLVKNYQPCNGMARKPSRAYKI
UniProt P32519: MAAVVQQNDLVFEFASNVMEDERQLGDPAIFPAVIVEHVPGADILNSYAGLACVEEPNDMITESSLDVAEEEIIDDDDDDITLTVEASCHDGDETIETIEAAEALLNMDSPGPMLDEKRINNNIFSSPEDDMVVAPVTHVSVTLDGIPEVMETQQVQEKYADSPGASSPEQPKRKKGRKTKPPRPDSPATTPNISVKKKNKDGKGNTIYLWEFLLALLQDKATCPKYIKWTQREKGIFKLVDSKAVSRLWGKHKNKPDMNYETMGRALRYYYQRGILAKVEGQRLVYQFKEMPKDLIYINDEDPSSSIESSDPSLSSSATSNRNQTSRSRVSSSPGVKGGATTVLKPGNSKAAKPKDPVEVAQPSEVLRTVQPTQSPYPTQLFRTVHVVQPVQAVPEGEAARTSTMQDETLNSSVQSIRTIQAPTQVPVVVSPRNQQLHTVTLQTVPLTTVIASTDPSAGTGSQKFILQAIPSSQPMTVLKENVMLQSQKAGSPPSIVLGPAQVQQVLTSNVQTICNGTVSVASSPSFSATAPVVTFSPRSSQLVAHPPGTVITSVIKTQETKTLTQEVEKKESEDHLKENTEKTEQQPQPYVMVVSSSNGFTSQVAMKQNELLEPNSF
UniProt Q9BQC3: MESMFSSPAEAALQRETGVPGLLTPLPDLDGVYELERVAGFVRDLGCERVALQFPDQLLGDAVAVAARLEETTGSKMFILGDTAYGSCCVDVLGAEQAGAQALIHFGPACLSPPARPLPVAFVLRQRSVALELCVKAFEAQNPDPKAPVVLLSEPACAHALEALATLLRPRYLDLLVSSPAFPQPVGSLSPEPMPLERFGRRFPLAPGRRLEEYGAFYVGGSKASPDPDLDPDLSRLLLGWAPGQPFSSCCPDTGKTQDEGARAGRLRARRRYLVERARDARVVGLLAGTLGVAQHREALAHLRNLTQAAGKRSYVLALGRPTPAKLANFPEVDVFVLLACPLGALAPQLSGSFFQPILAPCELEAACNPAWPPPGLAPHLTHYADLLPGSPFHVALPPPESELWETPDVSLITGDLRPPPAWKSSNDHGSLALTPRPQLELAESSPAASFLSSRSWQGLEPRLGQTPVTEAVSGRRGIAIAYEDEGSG
UniProt Q9BTC0, whole entry: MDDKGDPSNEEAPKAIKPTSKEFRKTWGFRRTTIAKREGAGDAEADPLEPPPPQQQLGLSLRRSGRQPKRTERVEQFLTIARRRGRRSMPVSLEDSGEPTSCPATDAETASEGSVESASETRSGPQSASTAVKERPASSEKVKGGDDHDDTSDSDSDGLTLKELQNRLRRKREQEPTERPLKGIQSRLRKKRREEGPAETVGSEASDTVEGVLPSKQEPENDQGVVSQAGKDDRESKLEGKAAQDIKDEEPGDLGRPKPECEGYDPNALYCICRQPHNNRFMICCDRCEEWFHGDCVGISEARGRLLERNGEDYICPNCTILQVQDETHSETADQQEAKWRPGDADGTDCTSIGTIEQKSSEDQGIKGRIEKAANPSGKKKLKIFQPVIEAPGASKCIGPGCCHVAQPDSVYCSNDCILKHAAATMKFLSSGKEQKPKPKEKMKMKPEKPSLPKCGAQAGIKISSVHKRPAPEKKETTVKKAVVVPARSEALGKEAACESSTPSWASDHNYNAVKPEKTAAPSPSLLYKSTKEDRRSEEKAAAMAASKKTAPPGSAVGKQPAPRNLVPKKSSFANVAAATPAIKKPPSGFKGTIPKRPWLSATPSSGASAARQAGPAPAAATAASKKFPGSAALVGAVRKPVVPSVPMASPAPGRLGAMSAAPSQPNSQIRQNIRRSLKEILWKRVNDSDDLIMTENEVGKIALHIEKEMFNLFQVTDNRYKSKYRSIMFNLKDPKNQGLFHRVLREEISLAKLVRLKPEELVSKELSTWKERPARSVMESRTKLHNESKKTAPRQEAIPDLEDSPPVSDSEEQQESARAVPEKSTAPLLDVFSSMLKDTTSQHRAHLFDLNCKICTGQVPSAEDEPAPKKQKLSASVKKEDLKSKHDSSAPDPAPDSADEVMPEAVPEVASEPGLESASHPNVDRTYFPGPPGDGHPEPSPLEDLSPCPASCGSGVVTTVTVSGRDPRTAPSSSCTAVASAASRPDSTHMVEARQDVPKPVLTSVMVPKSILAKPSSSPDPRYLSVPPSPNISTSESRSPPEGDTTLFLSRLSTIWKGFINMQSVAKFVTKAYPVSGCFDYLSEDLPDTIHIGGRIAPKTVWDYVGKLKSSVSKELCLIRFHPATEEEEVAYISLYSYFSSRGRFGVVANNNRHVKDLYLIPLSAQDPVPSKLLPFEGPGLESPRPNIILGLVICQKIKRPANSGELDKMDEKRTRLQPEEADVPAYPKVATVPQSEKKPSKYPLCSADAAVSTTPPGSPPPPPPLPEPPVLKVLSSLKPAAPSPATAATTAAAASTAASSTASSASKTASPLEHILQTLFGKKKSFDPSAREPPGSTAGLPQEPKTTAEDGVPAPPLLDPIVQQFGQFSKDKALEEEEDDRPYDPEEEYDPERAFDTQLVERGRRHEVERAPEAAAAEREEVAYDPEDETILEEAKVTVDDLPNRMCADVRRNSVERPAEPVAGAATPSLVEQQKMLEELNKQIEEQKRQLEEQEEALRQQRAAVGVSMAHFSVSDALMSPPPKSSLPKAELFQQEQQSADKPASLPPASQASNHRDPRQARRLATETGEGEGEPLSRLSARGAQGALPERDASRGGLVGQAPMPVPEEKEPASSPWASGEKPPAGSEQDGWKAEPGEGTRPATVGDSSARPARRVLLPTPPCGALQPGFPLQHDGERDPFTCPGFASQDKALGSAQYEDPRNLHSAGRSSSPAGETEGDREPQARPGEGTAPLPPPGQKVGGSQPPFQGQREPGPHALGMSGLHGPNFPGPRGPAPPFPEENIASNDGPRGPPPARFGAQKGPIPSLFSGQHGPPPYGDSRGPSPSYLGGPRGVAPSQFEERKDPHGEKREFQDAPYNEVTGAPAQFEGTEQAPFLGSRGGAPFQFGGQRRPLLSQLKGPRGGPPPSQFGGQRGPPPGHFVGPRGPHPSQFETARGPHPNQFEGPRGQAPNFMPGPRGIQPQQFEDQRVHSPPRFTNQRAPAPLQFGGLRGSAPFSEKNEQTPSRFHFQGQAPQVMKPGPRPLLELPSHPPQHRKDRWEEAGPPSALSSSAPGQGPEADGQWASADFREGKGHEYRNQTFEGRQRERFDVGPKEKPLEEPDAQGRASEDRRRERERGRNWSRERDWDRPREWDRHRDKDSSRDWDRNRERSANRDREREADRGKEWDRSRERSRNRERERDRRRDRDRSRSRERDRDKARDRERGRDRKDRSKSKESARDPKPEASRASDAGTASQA

The other results are listed elsewhere or left out.

Compound in this test: COc1ccc(Cn2ccc3ccc(C(=O)NO)cc32)cc1
In words: dose-dependent thermal stabilisation call (2D-TPP, DLPTP, 10% FDR) (binary (1 = stabilised)); higher = stabilised by the compound. The note with it: system: HL-60 intact cells; concentration range 0.04-10 µM.
Take EPC2 (UniProt Q52LR7): the “dose-dependent thermal stabilisation call” value was inactive: 0.
Regarding ERGIC3 (UniProt Q9Y282), the “dose-dependent thermal stabilisation call” value is inactive: 0.
Regarding EPS15L1 (UniProt Q9UBC2), the “dose-dependent thermal stabilisation call” value was inactive: 0.
As to DTD1 (UniProt Q8TEA8), the “dose-dependent thermal stabilisation call” value was inactive: 0.
Consider ECT2 (UniProt Q9H8V3), for which the “dose-dependent thermal stabilisation call” value is inactive: 0.
Under EIF3D (UniProt O15371) stands inactive: 0; under ENO1 (UniProt P06733), inactive: 0.
Regarding ELMO1 (UniProt Q92556), the “dose-dependent thermal stabilisation call” value is inactive: 0.
DOCK5 (UniProt Q9H7D0): the “dose-dependent thermal stabilisation call” value was inactive: 0.
DNM1L (UniProt O00429): the “dose-dependent thermal stabilisation call” value is inactive: 0.
Turning to ELL (UniProt P55199), the “dose-dependent thermal stabilisation call” value was inactive: 0.
As for EIF4A2 (UniProt Q14240), the “dose-dependent thermal stabilisation call” value is inactive: 0.
In the case of ELMO2 (UniProt Q96JJ3), the “dose-dependent thermal stabilisation call” value is inactive: 0.
As to ENY2 (UniProt Q9NPA8), the “dose-dependent thermal stabilisation call” value was inactive: 0.
In the case of DMAP1 (UniProt Q9NPF5), the “dose-dependent thermal stabilisation call” value is inactive: 0.
EIF2S3 (UniProt P41091): the “dose-dependent thermal stabilisation call” value is inactive: 0.
Take ECD (UniProt O95905): the “dose-dependent thermal stabilisation call” value is inactive: 0.
ECSIT (UniProt Q9BQ95): the “dose-dependent thermal stabilisation call” value is inactive: 0.
For the target DNAJC9 (UniProt Q8WXX5), the “dose-dependent thermal stabilisation call” value is inactive: 0.
Under EEF2 (UniProt P13639) stands inactive: 0; under DR1 (UniProt Q01658), inactive: 0; under EIF3A (UniProt Q14152), inactive: 0.
The result for DRG1 (UniProt Q9Y295) reads inactive: 0; that for E2F6 (UniProt O75461), inactive: 0; that for ENPP4 (UniProt Q9Y6X5), inactive: 0.
Under EIF4ENIF1 (UniProt Q9NRA8) stands inactive: 0; under EIF2AK4 (UniProt Q9P2K8), inactive: 0; under ERI3 (UniProt O43414), inactive: 0.
As for DIS3L (UniProt Q8TF46), the “dose-dependent thermal stabilisation call” value was inactive: 0.
Turning to ERCC5 (UniProt P28715), the “dose-dependent thermal stabilisation call” value was inactive: 0.
The result for EP400 (UniProt Q96L91) reads inactive: 0; that for DNASE2 (UniProt O00115), inactive: 0.
With ERAL1 (UniProt O75616), the “dose-dependent thermal stabilisation call” value is inactive: 0.
As to ELF1 (UniProt P32519), the “dose-dependent thermal stabilisation call” value is inactive: 0.
For the target DNTTIP1 (UniProt Q9H147), the “dose-dependent thermal stabilisation call” value is inactive: 0.
On to DPH2 (UniProt Q9BQC3), for which the “dose-dependent thermal stabilisation call” value was inactive: 0.
For the target DKFZP761E198, the “dose-dependent thermal stabilisation call” value is inactive: 0.
Consider DIDO1 (UniProt Q9BTC0), for which the “dose-dependent thermal stabilisation call” value is inactive: 0.
